The list shows only some results of the screen, not a fair sample: it is rich in T/C values a quarter to a half above the control, in often repeated tests (any T/C) and in doses without a T/C. Other doses and runs of a compound stand elsewhere. T/C gives the treated animals as a percentage of the vehicle group. Some entries give survivors of the animals treated and no T/C: the source holds a T/C of zero for them, seemingly a mark for toxic or unscored doses. Some survivor counts are full or nearly so, which does not show that the dose was tolerated: survival well below the control is almost never listed, so the zero probably covers shortened survival too. Counts of survivors are from the toxicity check (mostly the fifth day) where no day follows; animals may have died later. Schedule codes are those of the source, read here as Q, the interval in days (D) or hours (H), X, the number of doses. Some schedules carry Z or #; the key to these is not given. Where survival is the endpoint, this PubChem deposit counts one and a half times the control or more as active, and values a quarter to a half above the control carry no call in these data; other NCI protocols may use other cut-offs. Some doses were run more than once; the results are listed from low to high. Some T/C values carry the count of animals alive at the toxicity check (mostly the fifth day); without a count, all were alive then.
Test system: L1210 leukemia ip in BDF1 mice, survival T/C
Experiment: NCI In Vivo Anticancer Drug Screen. Data for tumor model L1210 Leukemia (intraperitoneal) in B6D2F1 (BDF1) mice
Conditions: T/C endpoint: mean survival time, higher T/C = longer survival
[1] = dose: 400.0 mg/kg/injection, schedule: Q04DX003 (ip), vehicle: saline
[2] = dose: 400.0 mg/kg/injection, schedule: Q04DX002 (ip), vehicle: Klucel (hydroxypropylcellulose) (HPC)
[3] = dose: 6.25 mg/kg/injection, schedule: Q01DX009 (ip), vehicle: saline
[4] = dose: 100.0 mg/kg/injection, schedule: Q04DX003 (ip), vehicle: saline
[5] = dose: 200.0 mg/kg/injection, schedule: Q04DX003 (ip), vehicle: saline

COc1ccc(-c2csc(-c3ccccc3)n2)cc1N=Cc1ccc(N(CCCl)CCCl)c(OC)c1 was tested, and the T/C (dose: 2.2 mg/kg/injection, schedule: Q01DX009 (ip), vehicle: saline) was 129 % of control, the T/C (dose: 3.3 mg/kg/injection, schedule: Q01DX009 (ip), vehicle: saline) was 129 % of control and the T/C (dose: 5.0 mg/kg/injection, schedule: Q01DX009 (ip), vehicle: acetone) was 134 % of control. The T/C (dose: 13.0 mg/kg/injection, schedule: Q01DX015 (ip), vehicle: carboxymethylcellulose (CMC)) was 130 % of control, the T/C (dose: 20.0 mg/kg/injection, schedule: Q01DX015 (ip), vehicle: carboxymethylcellulose (CMC)) was 136 % of control and the T/C (dose: 44.0 mg/kg/injection, schedule: Q01DX015 (ip), vehicle: carboxymethylcellulose (CMC)) was 131 % of control. For the same compound, the T/C (dose: 44.4 mg/kg/injection, schedule: Q01DX001 (ip), vehicle: carboxymethylcellulose (CMC)) was 125 % of control, the T/C (dose: 66.6 mg/kg/injection, schedule: Q01DX001 (ip), vehicle: carboxymethylcellulose (CMC)) was 127 % of control and the survivor count (dose: 80.0 mg/kg/injection, schedule: Q01DX009 (ip), vehicle: acetone) was 5 of 6. For the same compound, the T/C (dose: 100.0 mg/kg/injection, schedule: Q01DX001 (ip), vehicle: carboxymethylcellulose (CMC)) was 131 % of control, the T/C (dose: 100.0 mg/kg/injection, schedule: Q01DX001 (sc), vehicle: carboxymethylcellulose (CMC)) was 131 % of control and the T/C (dose: 150.0 mg/kg/injection, schedule: Q01DX001 (ip), vehicle: carboxymethylcellulose (CMC)) was 137 % of control. The T/C (dose: 200.0 mg/kg/injection, schedule: Q01DX001 (sc), vehicle: carboxymethylcellulose (CMC)) was 129 % of control and the T/C (dose: 400.0 mg/kg/injection, schedule: Q01DX001 (sc), vehicle: carboxymethylcellulose (CMC)) was 129 % of control.
With Nc1cc(Cl)ccc1N1CCCC1 the survivor count [1] was 3 of 6.
C/C(CC(=O)O)=C(\C)C(=O)O was tested, and the survivor count (dose: 400.0 mg/kg/injection, schedule: Q01DX009 (ip), vehicle: water) was 1 of 6.
With N#CCOc1cc(Cl)c(Cl)cc1Cl the survivor count [2] was 3 of 3.
With C[n+]1cccc2cc(Br)ccc21 the survivor count (dose: 80.0 mg/kg/injection, schedule: Q01DX001 (ip), vehicle: other) was 0 of 6, the survivor count (dose: 100.0 mg/kg/injection, schedule: Q01DX001 (ip), vehicle: other) was 4 of 4 and the survivor count (dose: 200.0 mg/kg/injection, schedule: Q01DX001 (ip), vehicle: other) was 0 of 4. For the same compound, the survivor count (dose: 400.0 mg/kg/injection, schedule: Q01DX001 (ip), vehicle: other) was 0 of 4.
In the case of Clc1ccc2c(NC3CCC(NC4CCCCC4)CC3)ccnc2c1 (configuration not stated), the survivor count (dose: 24.0 mg/kg/injection, schedule: Q01DX Z (ip), vehicle: carboxymethylcellulose (CMC)) is reported as 2 of 6.
For FC(F)(F)c1ccc2c(c1)N(CCCN1CCN(CCCl)CC1)c1ccccc1S2, the survivor count [3] was 6 of 6, the survivor count (dose: 25.0 mg/kg/injection, schedule: Q01DX009 (ip), vehicle: saline) was 5 of 6 and the survivor count [4] was 5 of 6. For the same compound, the survivor count [5] was 2 of 6 and the survivor count [1] was 0 of 6.
In the case of Nc1nc(N)c2nc(CNc3ccc(C(=O)NC(CC(=O)O)C(=O)O)cc3)cnc2n1 (configuration not stated), the T/C [3] is reported as 127 % of control, the T/C (dose: 6.25 mg/kg/injection, schedule: Q01DX Z (ip), vehicle: saline) is reported as 125 % of control and the T/C (dose: 12.5 mg/kg/injection, schedule: Q01DX009 (ip), vehicle: saline) is reported as 130 % of control. The T/C (dose: 12.5 mg/kg/injection, schedule: Q01DX Z (ip), vehicle: saline) was 137 and 144 % of control, the T/C (dose: 50.0 mg/kg/injection, schedule: Q01DX Z (ip), vehicle: saline) was 129 % of control and the survivor count (dose: 400.0 mg/kg/injection, schedule: Q01DX Z (ip), vehicle: saline) was 0 of 6.
CCN=C(N)c1ccc(N=C(N)c2ccc(C(N)=Nc3ccc(C(N)=NCC)cc3)cc2)cc1 was tested, and the survivor count (dose: 30.0 mg/kg/injection, schedule: Q01DX Z (ip), vehicle: saline) was 2 of 6, the survivor count (dose: 60.0 mg/kg/injection, schedule: Q01DX Z (ip), vehicle: saline) was 0 of 6 and the survivor count (dose: 75.0 mg/kg/injection, schedule: Q01DX Z (oral), vehicle: saline) was 4 of 6. The survivor count (dose: 120.0 mg/kg/injection, schedule: Q01DX Z (ip), vehicle: saline) was 0 of 6.
In the case of c1ccc2c(c1)ccc1[s+]cccc12, the survivor count (dose: 400.0 mg/kg/injection, schedule: Q04DX003 (ip), vehicle: acetone) is reported as 0 of 6.
With NC(=O)C(Br)c1ccccc1 (configuration not stated) the survivor count (dose: 400.0 mg/kg/injection, schedule: Q04DX003 (ip), vehicle: Klucel (hydroxypropylcellulose) (HPC)) was 0 of 6.
With CSC(N)=Nc1cccc2c1CCCC2 the survivor count (dose: 200.0 mg/kg/injection, schedule: Q01DX009 (ip), vehicle: saline) was 1 of 6 and the survivor count [1] was 0 of 6.
With Cc1cc(S(=O)(=O)c2ccccc2)c(C)s1 the survivor count (dose: 400.0 mg/kg/injection, schedule: Q01DX001 (ip), vehicle: saline) was 0 of 6.
For O=C1C2C3CCC(O3)C2C(=O)N1C(=O)N1C(=O)C2C3CCC(O3)C2C1=O (configuration not stated), the survivor count (dose: 200.0 mg/kg/injection, schedule: Q04DX002 (ip), vehicle: Klucel (hydroxypropylcellulose) (HPC)) was 1 of 3 and the survivor count [2] was 0 of 3.
CCOP(=O)(OCC)OCc1ccccc1 was tested, and the survivor count (dose: 25.0 mg/kg/injection, schedule: Q04DX003 (ip), vehicle: saline with Tween-80) was 1 of 6, the survivor count (dose: 50.0 mg/kg/injection, schedule: Q04DX003 (ip), vehicle: saline with Tween-80) was 0 of 6 and the survivor count (dose: 100.0 mg/kg/injection, schedule: Q04DX003 (ip), vehicle: saline with Tween-80) was 0 of 6. For the same compound, the survivor count (dose: 200.0 mg/kg/injection, schedule: Q04DX003 (ip), vehicle: saline with Tween-80) was 0 of 6 and the survivor count (dose: 400.0 mg/kg/injection, schedule: Q04DX003 (ip), vehicle: saline with Tween-80) was 0 of 6.
N=C(N)c1ccc(-c2nc3ccc(C(=N)N)cc3[nH]2)cc1 was tested, and the survivor count [4] was 1 of 4, the survivor count [5] was 0 of 4 and the survivor count [1] was 0 of 4.
N#CCCCN1CCCCC1 was tested, and the survivor count [4] was 2 of 6, the survivor count [5] was 0 of 6 and the survivor count [1] was 0 of 6.
For CCCCCC#CC(=O)OCC, the survivor count (dose: 400.0 mg/kg/injection, schedule: Q01DX009 (ip), vehicle: saline with Tween-80) was 0 of 6.
With CC(CC1c2ccccc2CCc2ccccc21)CN(C)C (configuration not stated) the survivor count (dose: 100.0 mg/kg/injection, schedule: Q01DX009 (ip), vehicle: saline) was 3 of 6, the survivor count [5] was 0 of 4 and the survivor count [1] was 0 of 4.
With Cc1c2oc3c(C)ccc(C(=O)NC4C(=O)NC(C(C)C)C(=O)N5CCCC5C(=O)N(C)CC(=O)N(C)C(C(C)C)C(=O)OC4C)c3nc-2c(C(=O)NC2C(=O)NC(C(C)C)C(=O)N3CCCC3C(=O)N(C)CC(=O)N(C)C(C(C)C)C(=O)OC2C)c(NCCCO)c1=O (configuration not stated) the T/C (dose: 0.2 mg/kg/injection, schedule: Q01DX009 (ip), vehicle: saline + alcohol) was 129 % of control [7 of 8 alive], the T/C (dose: 0.4 mg/kg/injection, schedule: Q01DX009 (ip), vehicle: saline + alcohol) was 137 % of control and the T/C (dose: 1.2 mg/kg/injection, schedule: Q04DX003 (ip), vehicle: saline + alcohol) was 134 % of control. For the same compound, the T/C (dose: 2.4 mg/kg/injection, schedule: Q04DX003 (ip), vehicle: saline + alcohol) was 128 % of control, the T/C (dose: 2.5 mg/kg/injection, schedule: Q04DX003 (ip), vehicle: saline + alcohol) was 135 % of control and the T/C (dose: 6.4 mg/kg/injection, schedule: Q01DX001 (ip), vehicle: saline + alcohol) was 142 % of control. The T/C (dose: 8.0 mg/kg/injection, schedule: Q01DX001 (ip), vehicle: saline + alcohol) was 143 % of control, the T/C (dose: 10.0 mg/kg/injection, schedule: Q04DX003 (ip), vehicle: saline + alcohol) was 140 % of control and the survivor count (dose: 16.0 mg/kg/injection, schedule: Q01DX001 (ip), vehicle: saline + alcohol) was 2 of 8. For the same compound, the T/C (dose: 25.0 micrograms/kg/injection, schedule: Q01DX009 (ip), vehicle: saline + alcohol) was 127 % of control, the T/C (dose: 50.0 micrograms/kg/injection, schedule: Q01DX009 (ip), vehicle: saline + alcohol) was 138 % of control and the T/C (dose: 100.0 micrograms/kg/injection, schedule: Q01DX009 (ip), vehicle: saline + alcohol) was 145 % of control. For the same compound, the T/C (dose: 200.0 micrograms/kg/injection, schedule: Q01DX009 (ip), vehicle: saline + alcohol) was 134 % of control.

Source: PubChem BioAssay AID248 (DTP/NCI, 2004)
